# Assay results reported in the supplement of paper PMC5662767.
# Counter-ions that a name gives are not always drawn. This is one part of the list. Part of the spread comes from offsets between plates or batches.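 The clonal Drosophila S2 line carries Smoothened with a circularly permuted GFP inserted in its cytoplasmic tail, which fluoresces once Hh-driven phosphorylation opens an inhibitory loop. Per-cell fluorescence was read by flow cytometry, scaled to Hh-stimulated untreated cells. Hits were groups of inhibitors sharing pathway targets that shifted fluorescence consistently, not single compounds.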
# Test system: Drosophila S2 cl14 SmoIP sensor cells
# Experiment: normalized SmoIP GFP fluorescence (untreated unstimulated = 0%, untreated Hh-stimulated = 100%); higher = more Smo activation sensor fluorescence
# Conditions: stimulation: Hh conditioned medium (+Hh); compound concentration: 15 uM; 24 h
row,SMILES,normalized SmoIP GFP fluorescence [%]
1,CN1CCN(CCOc2cc(OC3CCOCC3)c3c(Nc4c(Cl)ccc5c4OCO5)ncnc3c2)CC1,221
2,COC(=O)C1=C(C)NC(C)=C(C(=O)OC2CCCN(Cc3ccccc3)C2)C1c1cccc([N+](=O)[O-])c1 (centres undefined) [benidipine-hydrochloride],146
3,Cc1cc(C)c(CNC(=O)c2cc(-c3ccc(CN4CCOCC4)cc3)cc3c2cnn3C2CCCC2)c(=O)[nH]1,180
4,CN(C[C@@H]1COCCO1)S(=O)(=O)Nc1ccc2ccc3ncc(-c4cnn(C)c4)cc3c(=O)c2c1,69.6
5,C[C@@H]1C[C@H]2[C@@H]3CCC4=CC(=O)C=C[C@]4(C)[C@@]3(F)[C@@H](O)C[C@]2(C)[C@@]1(O)C(=O)CO [Dexamethasone],129
6,CC(C)OC(=O)C1=CN(C(=O)c2ccc(F)c(F)c2)CC(C)(C)c2c1[nH]c1ccccc21,121
7,CN1CC2c3ccccc3Oc3ccc(Cl)cc3C2C1 (centres undefined) [Asenapine],162
8,Cc1cccc(-c2[nH]c(C(C)(C)C)nc2-c2ccc3nccnc3c2)n1,143
9,COc1ccc(CC(C)NCC(O)c2ccc(O)c(NC=O)c2)cc1 (centres undefined) [formoterol-hemifumarate],132
10,Cc1ccc(Nc2nccc(N(C)c3ccc4c(C)n(C)nc4c3)n2)cc1S(N)(=O)=O [pazopanib],108
11,Cc1c(Cn2c(C)nc3c(C(=O)O)cc(N4CCOCC4)cc32)cccc1C(F)(F)F,165
12,COc1cc(Nc2ncc(F)c(Nc3ccc4c(n3)NC(=O)C(C)(C)O4)n2)cc(OC)c1OC,135
13,CCCCCCCCOc1ccccc1C(=O)Nc1ccc(C(=O)OCC[N+](C)(CC)CC)cc1 [otilonium-bromide],163
14,O=c1ncn2nc(Sc3ccc(F)cc3F)ccc2c1-c1c(Cl)cccc1Cl,111
15,Cc1ccccc1C(OCCN(C)C)c1ccccc1 (centres undefined) [orphenadrine-citrate-norflex],142
16,COc1ccc(CNCc2cccc3ccccc23)cc1,126
17,N[C@@H](CC(=O)N1CCn2c(nnc2C(F)(F)F)C1)Cc1cc(F)c(F)cc1F [Sitagliptin],114

row,SMILES,normalized SmoIP GFP fluorescence [%]
1,CCCC(CCC)C(=O)O [Sodium-valproate],127
2,Cc1ccc([C@@H]2O[C@H](CO)[C@@H](O)[C@H](O)[C@H]2O)cc1Cc1ccc(-c2ccc(F)cc2)s1 [canagliflozin],109
3,O=C(c1ccc(Nc2nccc(-c3cc4ccccc4s3)n2)cc1)N1CCC(N2CCCC2)CC1,170
4,CC(=O)O[C@]1(C(C)=O)CC[C@H]2[C@@H]3C[C@H](C)C4=CC(=O)CC[C@]4(C)[C@H]3CC[C@@]21C [Medroxyprogesterone-acetate],156
5,O=C1Nc2ccccc2/C1=C1/Nc2ccccc2C1=O [Indirubin],127
6,COc1ccc2c(Oc3ccc(NC(=O)c4c(C)n(CC(C)(C)O)n(-c5ccccc5)c4=O)nc3)ccnc2c1,180
7,O=c1cc(N2CCOCC2)oc2c(-c3ccccc3)cccc12,170
8,CCCC(=O)Nc1ccc(OCC(O)CNC(C)C)c(C(C)=O)c1 (centres undefined) [acebutolol-hcl],113
9,O=C1C(=O)N(Cc2ccc(Cl)c(Cl)c2)c2ccccc21 [apoptosis-activator-2],111
10,O=C(O)Cn1nnc(-c2cc(N3CCC(Oc4cc(F)ccc4Br)CC3)no2)n1,139
11,Cc1ccc(Nc2nccc(N(C)c3ccc4c(C)n(C)nc4c3)n2)cc1S(N)(=O)=O [Pazopanib-Hydrochloride],205
12,NCCCCCNCC12CC3CC(CC(C3)C1)C2 [iem-1754-dihydrobromide],110
13,CN1CC(=O)N2[C@H](c3ccc4c(c3)OCO4)c3[nH]c4ccccc4c3C[C@@H]2C1=O [Tadalafil(Cialis)],97
14,CO[C@H]1C[C@@H]2CC[C@@H](C)[C@@](O)(O2)C(=O)C(=O)N2CCCC[C@H]2C(=O)O[C@H]([C@H](C)C[C@@H]2CC[C@@H](OCCO)[C@H](OC)C2)CC(=O)[C@H](C)/C=C(\C)[C@@H](O)[C@@H](OC)C(=O)[C@H](C)C[C@H](C)/C=C/C=C/C=C/1C [Everolimus(RAD001)],83
15,CNC(=O)c1ccc(N2C(=S)N(c3cnc(C#N)c(C(F)(F)F)c3)C(=O)C23CCC3)cc1F,133
16,O=C(Nc1ccc(S(=O)(=O)Nc2ccccc2Cl)c(Cl)c1)c1ccccn1,171
17,Cn1cc(-c2ccc3nnc(Sc4ccc5ncccc5c4)n3n2)cn1,124

# Two entries from above, bar-delimited:
row | SMILES | normalized SmoIP GFP fluorescence [%]
16 | COc1ccc(CNCc2cccc3ccccc23)cc1 | 126
16 | O=C(Nc1ccc(S(=O)(=O)Nc2ccccc2Cl)c(Cl)c1)c1ccccn1 | 171
